Where cells or extracts were used, other partners may take part. For some assays here: Tags and fusion partners may be left off the protein sequences shown. For some assays here: For at least one entry, the source does not settle the construct or the ends of the probe. For some assays here: A negative result means that nothing was seen under these conditions.
Tests used:
[1] = system: Ets family factors (NIH3T3 nuclear extract) (mouse); test: EMSA; conditions: protein in an extract; label: 32P
Fli-1 (mouse) = target: T1, Fli-1 (mouse) (UniProt P26323); test: EMSA; conditions: antibody gave interference effect; protein in an extract; protein details: endogenous in NIH3T3 nuclear extract; label: 32P
T1 sequence (looked up, limits assumed): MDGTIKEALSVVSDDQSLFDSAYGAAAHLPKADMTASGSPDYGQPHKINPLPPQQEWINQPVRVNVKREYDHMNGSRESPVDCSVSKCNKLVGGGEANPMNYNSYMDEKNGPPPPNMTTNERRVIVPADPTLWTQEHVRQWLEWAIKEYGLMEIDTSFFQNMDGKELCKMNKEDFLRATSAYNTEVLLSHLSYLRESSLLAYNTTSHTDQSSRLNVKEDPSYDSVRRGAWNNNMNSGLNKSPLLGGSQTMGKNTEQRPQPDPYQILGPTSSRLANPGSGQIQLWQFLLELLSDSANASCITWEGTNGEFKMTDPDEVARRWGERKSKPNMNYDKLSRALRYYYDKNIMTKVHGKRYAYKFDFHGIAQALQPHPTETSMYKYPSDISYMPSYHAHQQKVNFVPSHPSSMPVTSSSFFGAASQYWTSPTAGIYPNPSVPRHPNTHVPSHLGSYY

GABPα (mouse) = target: T2, GABPα (mouse) (UniProt Q00422); test: EMSA; conditions: supershift with antibody; protein in an extract; protein details: endogenous in NIH3T3 nuclear extract; label: 32P
T2 sequence (looked up, limits assumed): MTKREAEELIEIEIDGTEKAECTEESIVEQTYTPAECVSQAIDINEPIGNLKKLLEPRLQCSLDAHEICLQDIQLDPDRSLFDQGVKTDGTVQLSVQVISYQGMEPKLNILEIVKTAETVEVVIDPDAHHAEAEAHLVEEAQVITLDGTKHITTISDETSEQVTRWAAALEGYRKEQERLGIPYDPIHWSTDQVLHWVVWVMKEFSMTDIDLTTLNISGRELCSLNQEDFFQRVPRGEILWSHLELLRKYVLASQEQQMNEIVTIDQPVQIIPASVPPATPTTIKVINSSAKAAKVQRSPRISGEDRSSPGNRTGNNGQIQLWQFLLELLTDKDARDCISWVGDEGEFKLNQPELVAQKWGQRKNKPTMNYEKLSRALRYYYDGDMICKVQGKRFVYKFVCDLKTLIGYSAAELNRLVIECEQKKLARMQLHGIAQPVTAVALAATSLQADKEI

Tel (ETV6) (mouse) = target: T3, Tel (ETV6) (mouse) (UniProt P97360); test: EMSA; conditions: supershift with antibody; protein in an extract; protein details: endogenous in NIH3T3 nuclear extract; label: 32P
T3 sequence (looked up, limits assumed): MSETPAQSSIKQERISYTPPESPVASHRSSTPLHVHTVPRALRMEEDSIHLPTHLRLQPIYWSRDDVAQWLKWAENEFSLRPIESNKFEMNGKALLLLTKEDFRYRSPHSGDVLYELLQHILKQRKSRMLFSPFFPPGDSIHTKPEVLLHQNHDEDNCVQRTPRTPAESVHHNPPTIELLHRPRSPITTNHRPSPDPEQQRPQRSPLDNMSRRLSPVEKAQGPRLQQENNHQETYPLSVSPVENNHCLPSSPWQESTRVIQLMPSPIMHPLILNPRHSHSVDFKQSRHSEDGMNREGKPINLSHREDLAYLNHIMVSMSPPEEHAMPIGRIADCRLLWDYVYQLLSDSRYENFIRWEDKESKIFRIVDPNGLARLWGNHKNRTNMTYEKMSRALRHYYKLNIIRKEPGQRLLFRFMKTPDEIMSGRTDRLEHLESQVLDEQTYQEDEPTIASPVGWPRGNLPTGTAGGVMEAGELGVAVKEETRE

[2] = system: Ets family factors (NIH3T3 nuclear extract) (mouse); test: competition with a labelled probe; conditions: single-nucleotide mutant does not compete; protein in an extract; variant of EBS WT (-85 to -70)

Row | Sequence | binding result [1] | binding result (Fli-1 (mouse)) | binding result (GABPα (mouse)) | binding result (Tel (ETV6) (mouse)) | binding result [2]
1 | GCGCCGCCGGAAGTGA (double strand) [EBS WT (-85 to -70)] | binds | binds | binds | binds | 
2 | GCGCCGCCGTAAGTGA (double strand) [EBS MT (-85 to -70)] |  |  |  |  | no binding

Source: patent US20080070298, “Promoter of Synoviolin Gene” (published 2008)
